PMC11263447
These are yes or no findings as the source states them, for the method shown. In cells and extracts the contact can be indirect. Some binding calls cover weakened binding; strength is not graded here.

Biological target: p53, as found in the co-immunoprecipitations with ARTS and with XIAP (UniProt P04637)
Assay: co-IP; cells lysed in RIPA buffer (50 mM Tris-HCl pH 7.5, 150 mM NaCl, 0.3% NP-40); antibody 5 µg per 1000 µg protein overnight at 4 °C; protein A/G agarose 4 h; five washes; western blot. Cell line not stated. Etoposide-treated cells for ARTS-p53.

B1: ARTS (Sept4_i2), as found in the co-immunoprecipitation with p53 (protein, UniProt O43236-6 1-274)
chain: MIKRFLEDTTDDGELSKFVKDFSGNASCHPPEAKTWASRPQVPEPRPQAPDLYDDDLEFRPPSRPQSSDNQQYFCAPAPLSPSARPRSPWGKLDPYDSSEDDKEYVGFATLPNQVHRKSVKKGFDFTLMVAGESGLGKSTLVNSLFLTDLYRDRKLLGAEERIMQTVEITKHAVDIEEKGVRLRLTIVDTPGFGDAVNNTECWKPVAEYIDQQFEQYFRDESGLNRKNIQDNRVHCCLYFISPFGHGYGPSLRLLAPPGAVKGTGQEHQGQGCH
binding: binds
